From PubChem BioAssay AID248 (DTP/NCI, 2004)
The list is a part of this screen's results and no random one: it is rich in T/C values a quarter to a half above the control, in often repeated tests (any T/C) and in doses without a T/C. Further doses and runs are listed elsewhere. T/C: endpoint of the treated group in % of that of the vehicle group. Some doses have a count of surviving animals in place of a T/C: the source holds a T/C of zero for them, seemingly a mark for toxic or unscored doses. Some doses without a T/C left all or most animals alive at the check, yet need not have been tolerated: the source hardly ever lists a survival T/C far under the control, and the zero likely stands for such cases as well. Counts of survivors are from the toxicity check (mostly the fifth day) where no day follows; animals may have died later. Schedule codes are those of the source, taken here to give the interval after Q, in days (D) or hours (H), and the number of doses after X. Where survival is the endpoint, this PubChem deposit counts one and a half times the control or more as active, and values a quarter to a half above the control carry no call in these data; other NCI protocols may use other cut-offs. Some schedules carry Z or #; the key to these is not given.

Tested on: L1210 leukemia ip in BDF1 mice, survival T/C
Test: NCI In Vivo Anticancer Drug Screen. Data for tumor model L1210 Leukemia (intraperitoneal) in B6D2F1 (BDF1) mice
Details: T/C endpoint: mean survival time, higher T/C = longer survival
[1] = dose: 100.0 mg/kg/injection, schedule: Q01DX009 (ip), vehicle: Klucel (hydroxypropylcellulose) (HPC)
[2] = dose: 200.0 mg/kg/injection, schedule: Q01DX009 (ip), vehicle: Klucel (hydroxypropylcellulose) (HPC)
[3] = dose: 400.0 mg/kg/injection, schedule: Q04DX003 (ip), vehicle: saline
[4] = dose: 100.0 mg/kg/injection, schedule: Q01DX009 (ip), vehicle: saline with Tween-80
[5] = dose: 100.0 mg/kg/injection, schedule: Q04DX003 (ip), vehicle: saline with Tween-80
[6] = dose: 200.0 mg/kg/injection, schedule: Q04DX003 (ip), vehicle: saline with Tween-80
[7] = dose: 400.0 mg/kg/injection, schedule: Q04DX003 (ip), vehicle: saline with Tween-80
[8] = dose: 400.0 mg/kg/injection, schedule: Q01DX009 (ip), vehicle: saline
[9] = dose: 400.0 mg/kg/injection, schedule: Q01DX009 (ip), vehicle: saline with Tween-80
[10] = dose: 400.0 mg/kg/injection, schedule: Q01DX001 (ip), vehicle: carboxymethylcellulose (CMC)
[11] = dose: 400.0 mg/kg/injection, schedule: Q01DX009 (ip), vehicle: Klucel (hydroxypropylcellulose) (HPC)
[12] = dose: 100.0 mg/kg/injection, schedule: Q04DX003 (ip), vehicle: Klucel (hydroxypropylcellulose) (HPC)
[13] = dose: 400.0 mg/kg/injection, schedule: Q04DX002 (ip), vehicle: saline with Tween-80

`Oc1cccc[c]1[Hg][Cl]` was tested, and the survivor count (dose: 6.0 mg/kg/injection, schedule: Q04DX003 (ip), vehicle: saline) was 1 of 6, the survivor count (dose: 12.0 mg/kg/injection, schedule: Q01DX009 (ip), vehicle: Klucel (hydroxypropylcellulose) (HPC)) was 3 of 6 and the survivor count (dose: 12.0 mg/kg/injection, schedule: Q04DX003 (ip), vehicle: saline) was 0 of 6. The survivor count (dose: 25.0 mg/kg/injection, schedule: Q01DX009 (ip), vehicle: Klucel (hydroxypropylcellulose) (HPC)) was 0 of 6, the survivor count (dose: 25.0 mg/kg/injection, schedule: Q04DX003 (ip), vehicle: saline) was 0 of 6 and the survivor count (dose: 50.0 mg/kg/injection, schedule: Q01DX009 (ip), vehicle: Klucel (hydroxypropylcellulose) (HPC)) was 0 of 6. The survivor count (dose: 50.0 mg/kg/injection, schedule: Q04DX003 (ip), vehicle: saline) was 0 of 6, the survivor count [1] was 0 of 6 and the survivor count (dose: 100.0 mg/kg/injection, schedule: Q04DX003 (ip), vehicle: saline) was 0 of 6. The survivor count [2] was 0 of 6, the survivor count (dose: 200.0 mg/kg/injection, schedule: Q04DX003 (ip), vehicle: saline) was 0 of 6 and the survivor count [3] was 0 of 6.
`COC12CCCC1S(=O)(=O)C2` (stereo not given) was tested, and the survivor count [4] was 3 of 6.
With `[NH-]C(Cc1ccccc1)C(=O)O.[NH-]C(Cc1ccccc1)C(=O)O.[Ni+2]` (stereo not given) the survivor count [5] was 3 of 3, the survivor count [6] was 1 of 3 and the survivor count [7] was 0 of 3.
With `CC(=O)Nc1ccnc(=O)[nH]1` the survivor count (dose: 300.0 mg/kg/injection, schedule: Q01DX001 (ip), vehicle: saline) was 1 of 6.
`Clc1cc[n+](-c2ccncc2)cc1` was tested, and the survivor count [8] was 6 of 6.
With `CCCCCC(/C=C/C1C=CC(=O)C1C/C=C/CCCC(=O)OC)OC(C)=O` (stereo not given) the survivor count [9] was 2 of 6.
In the case of `C1CCCCCC(NC2=NCCO2)CCCCC1`, the survivor count [5] was 5 of 6, the survivor count [6] was 1 of 6 and the survivor count [7] was 1 of 6.
With `Nc1ncnc2c(C3OC(CO)C(O)C3O)[nH]nc12` (stereo not given) the survivor count (dose: 50.0 mg/kg/injection, schedule: Q01DX009 (ip), vehicle: saline with Tween-80) was 6 of 6, the survivor count (dose: 90.0 mg/kg/injection, schedule: Q04DX003 (ip), vehicle: saline with Tween-80) was 6 of 6 and the survivor count [4] was 4 of 6. The survivor count (dose: 200.0 mg/kg/injection, schedule: Q01DX001 (ip), vehicle: saline) was 2 of 4, the survivor count (dose: 200.0 mg/kg/injection, schedule: Q01DX009 (ip), vehicle: saline with Tween-80) was 1 of 6 and the T/C [6] was 127 % of control. For the same compound, the survivor count [6] was 5 of 6, the survivor count [10] was 1 of 4 and the survivor count (dose: 400.0 mg/kg/injection, schedule: Q01DX001 (ip), vehicle: saline) was 2 of 4. The survivor count [7] was 2 of 6.
For `COc1cc([N+](=O)[O-])ccc1NC(=O)Oc1ccc(F)cc1Cl`, the survivor count [11] was 2 of 6.
`Nc1ccc(CCc2[nH]c(N)nc(=S)c2-c2ccc(Cl)cc2)cc1` was tested, and the survivor count [5] was 6 of 6.
With `CC(C)N(CCC#N)CN1C(=O)c2ccccc2C1=O` the survivor count [11] was 2 of 6.
For `C=CC[Se]c1ncnc2c1c(C#N)cn2C1OC(CO)C(O)C1O` (stereo not given), the survivor count (dose: 100.0 mg/kg/injection, schedule: Q01DX005 (ip), vehicle: saline) was 0 of 6 and the survivor count (dose: 200.0 mg/kg/injection, schedule: Q01DX005 (ip), vehicle: saline) was 0 of 6.
`CC(=O)Nc1ccc(C(=O)CCl)cc1` was tested, and the survivor count (dose: 50.0 mg/kg/injection, schedule: Q04DX003 (ip), vehicle: Klucel (hydroxypropylcellulose) (HPC)) was 4 of 6, the survivor count (dose: 100.0 mg/kg/injection, schedule: Q01DX001 (ip), vehicle: carboxymethylcellulose (CMC)) was 2 of 4 and the survivor count [1] was 0 of 6. For the same compound, the survivor count [12] was 6 of 6, the survivor count (dose: 200.0 mg/kg/injection, schedule: Q01DX001 (ip), vehicle: carboxymethylcellulose (CMC)) was 0 of 4 and the survivor count [2] was 0 of 6. The survivor count (dose: 200.0 mg/kg/injection, schedule: Q04DX003 (ip), vehicle: Klucel (hydroxypropylcellulose) (HPC)) was 0 of 6, the survivor count [10] was 0 of 4 and the survivor count [11] was 0 of 6. For the same compound, the survivor count (dose: 400.0 mg/kg/injection, schedule: Q04DX003 (ip), vehicle: Klucel (hydroxypropylcellulose) (HPC)) was 0 of 6.
In the case of `CN(C)C1C(=O)C(C(=O)NCNC(CCS)C(=O)O)=C(O)C2(O)C(=O)C3=C(O)c4c(O)cccc4C(C)(O)C3CC12` (stereo not given), the T/C (dose: 640.0 mg/kg/injection, schedule: Q01DX Z (ip), vehicle: saline) was 125 % of control.
`CC(C)N(CCN)C(C)C` was tested, and the survivor count [3] was 1 of 6.
With `c1ccc(N2CCN(c3ccccc3)CC2)cc1` the survivor count [9] was 6 of 6.
For `CCC(CC)(CC)OC(=O)NS(=O)(=O)c1ccc(Cl)cc1`, the survivor count (dose: 200.0 mg/kg/injection, schedule: Q01DX009 (ip), vehicle: acetone) was 3 of 6 and the survivor count (dose: 400.0 mg/kg/injection, schedule: Q01DX009 (ip), vehicle: acetone) was 0 of 6.
In the case of `CCCCCP(=O)(CCCCC)CCCCC`, the survivor count (dose: 200.0 mg/kg/injection, schedule: Q04DX002 (ip), vehicle: saline with Tween-80) was 0 of 3 and the survivor count [13] was 0 of 3.
For `O=C(c1ccccn1)c1nnn2ccccc12`, the survivor count [13] was 1 of 3.
`CC(=O)Nc1onc(C)c1N` was tested, and the survivor count (dose: 100.0 mg/kg/injection, schedule: Q01DX009 (ip), vehicle: saline) was 6 of 6 and the survivor count [8] was 0 of 6.
`CCn1c(C)[n+](CC)c2ccc(C(C)=O)cc21` was tested, and the survivor count (dose: 200.0 mg/kg/injection, schedule: Q01DX001 (ip), vehicle: saline with Tween-80) was 0 of 6 and the survivor count (dose: 400.0 mg/kg/injection, schedule: Q01DX001 (ip), vehicle: saline with Tween-80) was 0 of 6.
For `CC(CCc1cccc2ccccc12)(C(=O)O)C(=O)O`, the survivor count (dose: 400.0 mg/kg/injection, schedule: Q01DX009 (ip), vehicle: saline sonified) was 2 of 6.
For `CCCCCCP(=O)(CCCC)CCCC`, the survivor count (dose: 200.0 mg/kg/injection, schedule: Q04DX002 (ip), vehicle: Klucel (hydroxypropylcellulose) (HPC)) was 1 of 3 and the survivor count (dose: 400.0 mg/kg/injection, schedule: Q04DX002 (ip), vehicle: Klucel (hydroxypropylcellulose) (HPC)) was 0 of 3.
With `CCOC(=O)NC(C)(C)Cc1ccccc1` the survivor count [6] was 6 of 6 and the survivor count [7] was 1 of 6.
`O=C1OC2(Cc3ccccc31)c1ccccc1-c1ccccc12` was tested, and the survivor count [12] was 6 of 6.
